Source: article PMC7956376
These are yes or no findings as the source states them, for the method shown. Some results given as binding are weak or reduced against the parent protein; the word gives no strength. Where a sequence is shown, tags or fusion partners need not be part of it.

T1: StSN2 full length fused to pGBKT7 (SN2-BD) (potato (Solanum tuberosum, cultivar Chuanyu 10)) (UniProt Q93X17)
T1 sequence: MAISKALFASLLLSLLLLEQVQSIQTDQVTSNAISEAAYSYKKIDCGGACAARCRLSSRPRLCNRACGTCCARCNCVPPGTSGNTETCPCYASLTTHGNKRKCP


target: T1, StSN2 full length fused to pGBKT7 (SN2-BD) (potato (Solanum tuberosum, cultivar Chuanyu 10)); assay: two-hybrid; SN2 full length in pGBKT7 (bait), peroxidases in pGADT7; yeast AH109; selection on SD-Trp-Leu, growth on SD/-Leu-Trp-His, beta-galactosidase activity (X-gal)

binding	Binder
binds	Prx10 fused to pGADT7 (enzyme, UniProt M1CCJ9 1-359) MASTTLYTLASSLVLILSIFVSIHFQVTKAQGTQPIVKGLSWTFYDSICPNAESIIRRRLQNVFRQDIGQAAGLLRLHFHDCFVQGCDGSVLLDGSTSGPSEKDAPPNLTLRQQAFRIIEDLRRRVHRDCGRVVSCADITAIAARDSVFFSGGPDYDLPLGRRDGLTFATLNETLANLPPPSFNTSLILASLATKNFTPTDVVALSGGHTIGISHCTSFTERLYPNQDSSMDKTFANNLKITCPTTNSTNTTVLDIRSPNKFDNKYYVDLMNRQGLFTSDQDLYTDRRTRGIVTSFAINESLFFQEFVNSMIKMGQLNVLTGTQGQIRANCSVRNSNNYNLILPSSLGDQEKQGTWSEI
binds	Prx2 fused to pGADT7 (enzyme, UniProt M1AU65 1-322) MASSKNNTMVFLFLLVTLLIGSSSAQLSTSFYSKSCPKLYQTVKSTVQSAIKKETRMGASLLRLFFHDCFVNGCDGSLLLDDTSSFTGEKRAAPNVNSVRGFEVIDNIKSAVEKACPGVVSCADILAVTARDSVVILGGPNWNVKLGRRDARTASQGAANSSIPAPTFNLNRLISSFSAVGLSTKDMVALSGSHTIGQARCTTFRARIYNETNSIDSSFARTRQNSCPRNSGSGDNNLAPLDLQTPSKFDNNYFKNLVNKKGLLHSDQQLFNGGSADSIVRSYINNPSSFNSDFVTAMIKMGDIRPLTGSNGEIRKNCRRRN
binds	Prx9 fused to pGADT7 (enzyme, UniProt M1A251 1-334) MALGATHLSLAFCLMALIVLVKADFDGKKEPINNILEQNSEMLTQDFCIFAAVGSVVAEAIARERRMGASLIRLFFHDCFVDGCDAGILLDDIPGRFQGEKTSPPNNNSVRGYQVIDQAKQRIKTMCPGAAVSCADILALAARDSVAMLGGIPYPVSLGRKDARTANFTGALIQLPAPFDDLNVQLKKFSDKGMSAREMVALVGSHTVGFARCVTLCDDRNINPAMKSTLKCGCPVSNNNTNLVPLDLMTPDFFDKFYYEDLIRNQGLLFSDQVLMGSTATANVVRTYNSNPALFLREFNDAMIKMGNLPPSRGVQLEIRNVCSKVNGNSIADM
